Measured values published in US7736899B1, “Cells and method for producing proteins comprising an unconventional amino acid” (priority 1998, dated 2010).

Tests used:
strain CU505 (wt valS) = test: Amino acid composition of protein hydrolysate (ninhydrin, Beckman 6300); assay type: cell-based, E. coli; details: valine limiting
[1] = test system: strain β5498 (valS T222P); test: as above; assay type: cell-based, E. coli; details: for Amino acid incorporated into the proteins: valine limiting
[2] = CU505 wt valS + Abu (0.2 mM L-aminobutyrate)
[3] = cultured with 0.2 mM L-aminobutyrate
[4] = β5498 valS T222P + Abu (0.2 mM L-aminobutyrate)

Compound | Amino acid incorporated into the proteins (strain CU505 (wt valS); [2]) [Leu equivalents] | Amino acid incorporated into the proteins (strain CU505 (wt valS); CU505 wt valS − Abu) [Leu equivalents] | aminobutyrate residues in the total proteins [1, 3] | proportion of the amount of valine replaced by aminobutyrate [1, 3] | Amino acid incorporated into the proteins [1, 4] [Leu equivalents] | Amino acid incorporated into the proteins ([1]; β5498 valS T222P − Abu) [Leu equivalents]
L-2-aminobutyrate | 0 | 0 | approximately 5 residues for 100 amino acids | a quarter | 0.20 | 0
CC[C@H](C)[C@H](N)C(=O)O [isoleucine] | 0.61 | 0.61 |  |  | 0.61 | 0.61
C[C@H](N)C(=O)O [Ala] | 1.32 | 1.32 |  |  | 1.22 | 1.28
CC(C)[C@H](N)C(=O)O [valine] | 0.83 | 0.83 |  |  | 0.61 | 0.79
